# Test results: PMC4821352
# The chains behind the UniProt entries cited, without tags or fusion partners.
# UniProt P41208: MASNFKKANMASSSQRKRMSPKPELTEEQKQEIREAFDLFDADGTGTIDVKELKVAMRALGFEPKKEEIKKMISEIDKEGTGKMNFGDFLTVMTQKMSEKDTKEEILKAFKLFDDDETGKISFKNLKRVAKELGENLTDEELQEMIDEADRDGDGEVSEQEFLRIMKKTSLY
# UniProt Q63472: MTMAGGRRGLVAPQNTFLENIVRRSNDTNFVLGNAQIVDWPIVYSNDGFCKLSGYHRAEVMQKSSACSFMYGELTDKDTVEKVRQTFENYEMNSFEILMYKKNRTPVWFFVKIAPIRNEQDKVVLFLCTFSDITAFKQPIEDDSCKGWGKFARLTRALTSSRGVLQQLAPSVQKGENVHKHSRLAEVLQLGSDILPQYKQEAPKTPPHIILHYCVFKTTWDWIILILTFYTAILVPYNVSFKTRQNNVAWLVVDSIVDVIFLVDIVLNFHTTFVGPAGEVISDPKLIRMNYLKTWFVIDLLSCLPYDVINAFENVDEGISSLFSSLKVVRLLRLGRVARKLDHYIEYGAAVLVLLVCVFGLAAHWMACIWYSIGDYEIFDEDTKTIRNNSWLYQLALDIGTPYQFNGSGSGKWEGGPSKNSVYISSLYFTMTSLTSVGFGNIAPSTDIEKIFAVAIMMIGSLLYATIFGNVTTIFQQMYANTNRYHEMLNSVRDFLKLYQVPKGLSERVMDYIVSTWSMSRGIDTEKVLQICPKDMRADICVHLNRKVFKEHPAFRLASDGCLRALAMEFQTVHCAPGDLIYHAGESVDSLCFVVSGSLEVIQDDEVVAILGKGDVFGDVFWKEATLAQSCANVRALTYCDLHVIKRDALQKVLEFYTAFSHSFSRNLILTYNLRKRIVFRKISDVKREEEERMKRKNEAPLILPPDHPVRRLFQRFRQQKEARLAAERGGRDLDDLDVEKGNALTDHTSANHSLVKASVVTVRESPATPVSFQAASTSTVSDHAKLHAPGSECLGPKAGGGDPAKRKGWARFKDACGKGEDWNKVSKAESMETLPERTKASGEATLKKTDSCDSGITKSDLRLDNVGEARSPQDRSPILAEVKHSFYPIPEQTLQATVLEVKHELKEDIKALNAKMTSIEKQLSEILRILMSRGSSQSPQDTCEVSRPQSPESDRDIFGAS
# These are yes or no findings as the source states them, for the method shown. In cells and extracts the contact can be indirect. Some results given as binding are weak or reduced against the parent protein; the word gives no strength.
# Molecular target: GFP-tagged centrin 2 (human) (UniProt P41208)
# Experiment: co-IP; transfected HEK293T cells solubilized in IP buffer (20 mM Tris-HCl pH 7.4, 150 mM NaCl, 1% Triton X-100, 0.5% Na-deoxycholate, 0.1% SDS, 1 mM EDTA); 16 h at 4 °C with antibody-coated protein A/G sepharose beads; immunoblot
substance,measurement,value
"rat Eag1 (rEag1) K+ channel, expressed from pcDNA3 (from UniProt Q63472 1-962)",binding,binds
